Taken from: PubChem BioAssay AID1259308 (NCATS, 2017)
Aim: 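Knock-downs that increase output of a recombinant reporter protein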 (primary screen). System: human HEK293 embryonic kidney cells stably expressing firefly luciferase (HEK-CMV-Luc2-Hygro). Reagent: single siRNA against human genes, 0.8 pmol siRNA per well. Time to read-out: 72 h. Read-out: 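Luciferase light (ONE-Glo) measured on one replicate plate set and viability (CellTiter-Glo) on the other, scaled to a negative control siRNA, with robust z-scores and luciferase per cell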. Reading the numbers: total luciferase, z-score: higher = more reporter protein produced. Rule for the call: 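Active when the median/MAD z-score for overall luciferase is greater than 3; a gene was taken forward for validation with new siRNAs if at least two of its three siRNAs passed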. Calls: active = raised luciferase; inactive = no rise.
Here is a random part of about 59,000 deposited reagents. About 1,510 of all reagents (2.6%) count as active. 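Calls use total luciferase alone and ignore viability, so some active siRNAs may act by altering cell number.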 The numbers tell different reagents against one gene apart. Further read-outs or replicates are left out here.

total luciferase, z-score, by target gene and reagent
AAMDC: #1 -0.47 inactive; #2 -0.182 inactive; #3 0.185 inactive
ERCC2: #1 1.15 inactive; #2 0.23 inactive; #3 -0.0646 inactive
PLIN1: #1 0.296 inactive; #2 0.504 inactive; #3 0.644 inactive
EIF4A3: #1 2.46 inactive; #2 3.95 active; #3 1.79 inactive
MAGEB3: #1 0.112 inactive; #2 -0.0756 inactive; #3 -0.283 inactive
SUPV3L1: #1 -0.386 inactive; #2 0.106 inactive; #3 -1.15 inactive
FBXL2: #1 3.15 active; #2 -0.727 inactive; #3 0.742 inactive
SCHIP1: #1 0.91 inactive; #2 3.47 active; #3 0.988 inactive
ACTR10: #1 0.912 inactive; #2 -0.281 inactive; #3 0.0318 inactive
PLA2G5: #1 0.758 inactive; #2 3.07 active; #3 -1.43 inactive
FCRL6: #1 -0.804 inactive; #2 -1.05 inactive; #3 -0.551 inactive
SPANXN3: #1 2.56 inactive; #2 0.907 inactive; #3 0.101 inactive
TCEANC: #1 0.808 inactive; #2 -0.849 inactive; #3 -1.46 inactive

Taken from above.
Under “total luciferase, z-score”, ERCC2 #3 shows -0.0646
FCRL6 #2, Outcome: inactive
Value of MAGEB3 #1 under “Outcome”: inactive
